Test results reported in patent US20180071413A1 (INSERM INSTITUT NATIONAL DE LA SANTE ET DE LA RECHERCHE …, published 2018).
These are yes or no findings as the source states them, for the method shown. Some binding calls cover weakened binding; strength is not graded here.

Amino acid sequences for entries named in this document (tags omitted). Residues count along the entry.
UniProt Q9NZQ7, residues 19-290: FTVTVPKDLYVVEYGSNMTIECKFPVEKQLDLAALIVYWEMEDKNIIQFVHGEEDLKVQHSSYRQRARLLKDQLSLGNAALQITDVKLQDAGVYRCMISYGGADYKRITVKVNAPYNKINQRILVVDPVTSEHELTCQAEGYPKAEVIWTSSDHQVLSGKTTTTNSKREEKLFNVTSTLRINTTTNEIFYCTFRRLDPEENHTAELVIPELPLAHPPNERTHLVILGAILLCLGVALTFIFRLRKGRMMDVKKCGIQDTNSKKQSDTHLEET

Columns and labels:
human PD-L1 [1] = target: T1, human PD-L1 (human, UniProt Q9NZQ7 19-290); experiment: radioligand cell binding, 32 pM ^111In-PD-L1.3.1 on confluent breast cancer cells, specific binding after subtraction of 1,000-fold unlabeled excess, gamma counter
T1 construct: whole, on cells; Target presented on human breast cancer cell lines; The quantitative assays (IRF, IC50, Kd) used MDA-MB-231 cells; also called CD274; Programmed Cell Death 1 Ligand 1

human PD-L1 [2] = target: T1, human PD-L1; experiment: radioligand cell binding, 32 pM ^111In-PD-L1.3.1 for 4 h at 37 °C or on ice on confluent breast cancer cells; non-specific binding (1,000-fold excess of unlabeled PD-L1.3.1) subtracted
human PD-L1 [3] = target: T1, human PD-L1; experiment: heading of the results section on cell binding assays
human PD-L1 [4] = target: T1, human PD-L1; experiment: summary of the in vitro cell binding assays on MDA-MB-231 cells
human PD-L1 [5] = target: T1, human PD-L1; experiment: saturation binding of ^111In-PD-L1.3.1 on cells, 4 h on ice, non-specific binding (100 nM PD-L1.3.1) subtracted; the cell line is not printed on the sheet (MDA-MB-231 used in the subsequent binding assays)
human PD-L1 [6] = target: T1, human PD-L1; experiment: competition on MDA-MB-231 cells, 4 h on ice; increasing unlabeled PD-L1.3.1 against 20 pM ^111In-PD-L1.3.1 (competitor: the labelled form of the same antibody), gamma counting
human PD-L1 [7] = target: T1, human PD-L1; experiment: immunohistochemistry on frozen xenograft sections, 10 µg/ml PD-L1.3.1, peroxidase-conjugated rabbit anti-mouse antibody, DAB; 'PD-L1 blanc' is the blank control

Measured: binding

B1: ^111In-DTPA-PD-L1.3.1 (antibody, V domains shown)
VH: EVQLQQSGTELVKPGASVKLSCTTSGFNIQDTYMHWVKQRPEQGLEWIGWIDPANGNTKYDPKFQGKATIIADTSSNTAYLQLRGLTSEDTAVYYCARSGVSTAHFDYWGQGTTLTVSS
VL: QIVLSQSPAILSASPGEKVTMTCRASSSVSFMHWYQQKPGSSPKPWIYATSNLASGVPTRFSGSGSGTSYSLTLSRVEAEDAATYYCQQWSSYPRTFGGGTKLEIK
modifications: ITC-DTPA conjugate chelating ^111In; conjugated residues and chain not stated
not listed: human PD-L1 [6] | human PD-L1 [7]
binds: all other assays above

B2: PD-L1.3.1 antibody (unlabeled) (antibody, V domains shown)
VH: B1 VH
VL: B1 VL
notes: also called unlabeled PD-L1.3.1
binds: human PD-L1 [6] | human PD-L1 [7]
